Data source: PubChem BioAssay AID1259254 (NCATS, 2017)

Screen: 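Gene knock-downs that lead to re-replication, shown by excess G2 DNA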 (primary screen)
Cells: human HCT116 colorectal cancer cells
Reagent: single siRNA against human genes
Duration: 3 days
Measured: 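Imaged Hoechst DNA stain sorts each cell into a cycle phase by DNA amount; per plate, G2 fraction set to 0% for non-targeting and 100% for GMNN siRNA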
Scale: G2 robust z-score: higher = more G2 cells, more excess DNA replication
Hit rule: 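An siRNA counts as active if its G2 robust z-score lies at least 5 MADs above the screen median; here such calls match roughly 38% of GMNN control or more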
This is an unselected part of about 59,000 reagents. Of all reagents, about 1,550 (2.6%) got an active call. 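G2 share is only a proxy for re-replication; each gene was hit by three separate siRNAs, and active genes were retested.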 The numbers tell different reagents against one gene apart. Further read-outs or replicates are left out here. No sequences are given here. Not stated in the record: the amount of reagent.

PMM2 #1 scored G2 robust z-score -0.61; inactive.
After knock-down of PMM2 #2, the record shows G2 robust z-score -0.211; inactive.
With knock-down of PMM2 #3, the record shows G2 robust z-score -0.931; inactive.
Knock-down of ZNF765 #1 gave: G2 robust z-score 0.955; inactive.
After knock-down of ZNF765 #2 the results were G2 robust z-score -0.305; inactive.
Silencing of ZNF765 #3 resulted in: G2 robust z-score -0.426; inactive.
Knock-down of NUDT12 #1 resulted in: G2 robust z-score 3.42; inactive.
For NUDT12 #2 the deposit lists G2 robust z-score -0.0645; inactive.
Depletion of NUDT12 #3 gave: G2 robust z-score -0.32; inactive.
Depletion of ADARB2 #1 came out at: G2 robust z-score -0.19; inactive.
Against ADARB2 #2, the entry reads G2 robust z-score 1.31; inactive.
Silencing of ADARB2 #3 came out at: G2 robust z-score 0.604; inactive.
With knock-down of TPI1 #1, the record shows G2 robust z-score 1.14; inactive.
With knock-down of TPI1 #2 the results were G2 robust z-score 0.889; inactive.
Knock-down of TPI1 #3 came out at: G2 robust z-score 5.07; active.
Against COA1 #1, the entry reads G2 robust z-score 3.61; inactive.
Knock-down of COA1 #2 resulted in: G2 robust z-score 1.69; inactive.
With knock-down of COA1 #3, the screen gave G2 robust z-score -0.556; inactive.
After knock-down of KLHDC1 #1, the record shows G2 robust z-score 1.41; inactive.
For KLHDC1 #2, the entry reads G2 robust z-score -0.369; inactive.
After knock-down of KLHDC1 #3 the results were G2 robust z-score -0.925; inactive.
EFCAB12 #1 scored G2 robust z-score 0.277; inactive.
For EFCAB12 #2, the values are G2 robust z-score 1.63; inactive.
With knock-down of EFCAB12 #3, the record shows G2 robust z-score 1.05; inactive.

Hits, among the entries above:
TPI1 #3 | G2 robust z-score: 5.07; call: active
